Laboratory results published in article PMC4359306.
Construct, isoform or probe ends are uncertain for at least one entry. Where cells or extracts were used, other partners may take part. For some of these results: The comparison behind a weaker result is the experiment's own reference, which may not be listed here. For some of these results: At least one verdict was read from the data and is not stated in words by the source.

The chains behind the UniProt entries cited, without tags or fusion partners. Residues count along the entry.
UniProt P08047, 2-785: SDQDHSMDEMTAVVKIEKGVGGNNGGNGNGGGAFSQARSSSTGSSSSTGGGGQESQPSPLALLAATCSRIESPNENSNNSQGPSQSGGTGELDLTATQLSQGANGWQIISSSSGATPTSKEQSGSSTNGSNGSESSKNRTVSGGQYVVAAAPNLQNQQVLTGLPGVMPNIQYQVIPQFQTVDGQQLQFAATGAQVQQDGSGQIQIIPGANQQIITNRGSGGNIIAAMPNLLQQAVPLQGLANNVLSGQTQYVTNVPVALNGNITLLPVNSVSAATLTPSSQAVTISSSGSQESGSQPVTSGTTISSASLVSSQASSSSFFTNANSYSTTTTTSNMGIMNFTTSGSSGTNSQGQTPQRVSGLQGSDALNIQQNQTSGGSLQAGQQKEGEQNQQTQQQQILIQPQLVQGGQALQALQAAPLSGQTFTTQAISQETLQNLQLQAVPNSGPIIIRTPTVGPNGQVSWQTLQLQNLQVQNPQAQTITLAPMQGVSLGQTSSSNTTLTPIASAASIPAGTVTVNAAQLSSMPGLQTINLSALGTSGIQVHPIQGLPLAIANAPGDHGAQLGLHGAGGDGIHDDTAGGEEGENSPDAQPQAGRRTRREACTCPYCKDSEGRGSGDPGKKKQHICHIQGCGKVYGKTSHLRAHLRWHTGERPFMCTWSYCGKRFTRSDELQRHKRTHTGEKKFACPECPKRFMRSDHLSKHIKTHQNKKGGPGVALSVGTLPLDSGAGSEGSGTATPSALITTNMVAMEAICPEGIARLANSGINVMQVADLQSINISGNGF
UniProt P25490, whole entry: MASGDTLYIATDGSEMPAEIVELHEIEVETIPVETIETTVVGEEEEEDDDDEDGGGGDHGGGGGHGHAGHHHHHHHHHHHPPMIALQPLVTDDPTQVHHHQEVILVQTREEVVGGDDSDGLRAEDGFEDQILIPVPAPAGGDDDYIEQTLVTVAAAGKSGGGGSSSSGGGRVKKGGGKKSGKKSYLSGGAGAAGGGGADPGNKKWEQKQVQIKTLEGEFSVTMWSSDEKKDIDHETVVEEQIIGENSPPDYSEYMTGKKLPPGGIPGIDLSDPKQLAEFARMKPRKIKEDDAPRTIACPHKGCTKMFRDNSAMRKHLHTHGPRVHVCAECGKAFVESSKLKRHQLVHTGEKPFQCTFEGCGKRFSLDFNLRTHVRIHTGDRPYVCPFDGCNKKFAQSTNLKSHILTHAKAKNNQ

Legend:
Assay in all cases: EMSA with supershift
Conditions in all cases: 10 mM MgCl2, 2 mM ATP, 20 mM beta-glycerophosphate, protein in an extract, label: 32P 5' end
[1] = molecular target: Sp1, mitotic or TOPK-treated (linker-phosphorylated) (Homo sapiens (HeLa)) (UniProt P08047)
[2] = molecular target: Sp1 (S-phase/asynchronous HeLa extract) (Homo sapiens (HeLa)) (UniProt P08047)
[3] = molecular target: YY1 (S-phase/asynchronous HeLa extract) (Homo sapiens (HeLa)) (UniProt P25490)
[4] = molecular target: YY1, mitotic or TOPK-treated (linker-phosphorylated) (Homo sapiens (HeLa)) (UniProt P25490)
[5] = mitotic cells treated with 1 uM K252a 10 min, binding partially restored, linker phosphorylation inhibited
[6] = thymidine extract + active GST-TOPK, ATP
[7] = thymidine (S-phase) extract, kinase buffer, no GST-TOPK

Sequence | binding result [1, 5] | binding result ([1]; nocodazole (mitotic) extract) | binding result [1, 6] | binding result ([2]; asynchronous HeLa extract) | binding result [2, 7] | binding result ([3]; asynchronous HeLa extract) | binding result [3, 7] | binding result [4, 5] | binding result ([4]; nocodazole (mitotic) extract) | binding result [4, 6]
ATTCGATCGGGGCGGGGCGAGC (double strand) [Sp1 consensus oligo] | binds | binds more weakly | binds more weakly | binds | binds | – | – | – | – | –
GATCCTCGGCCGTCATGGCGCTGCAGGAGGCA (double strand) [H3.2alpha YY1 site oligo] | – | – | – | – | – | binds | binds | binds | binds more weakly | binds more weakly
